# Assay results from PubChem BioAssay AID493014 (National Center for Advancing Translational Sciences (NCATS), 2011).
# The other results are listed elsewhere or left out. Further columns of the screen follow, without active or inactive calls. Compounds called inactive in the main read-out are mostly missing here. Potencies come from curve fits of mixed quality, noted in brackets.
# Experiment: qHTS Assay to Find Inhibitors of Chronic Active B-Cell Receptor Signaling
# Details: ABC-DLBCL IkBa-CBG/CBR reporter, luminescence ratio (green luciferase fused to IkBa over red control in TMD8 lymphoma cells), 4 h
# How it was run: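 Doxycycline induced both beetle luciferases in TMD8 lymphoma cells; IKK-driven degradation limits the IkappaBalpha-fused green signal, while red luminescence normalises for cell number and nonspecific effects. Compounds tested up to 46 uM, 4 hrs.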
# [1] = measured here: CBR red luminescence, cell number
# [2] = measured here: IkBa-CBG green luminescence
Structure (SMILES),AC50 [1],AC50 [2]
O=C(Nc1ccccc1C(=O)Nc1ccncc1)c1ccc([N+](=O)[O-])cc1,"2.51 µM [falling, full curve]",–
CCN1CCN(c2nc3c(c(=O)[nH]c(=O)n3C)n2Cc2ccccc2F)CC1,"35.5 µM [rising, single point]",–
Cc1sc(NC(=O)c2ccco2)c(C(c2cccnc2)N2CCC(C)CC2)c1C (stereo unspecified),"1.3 µM [falling, partial curve, poor fit]",–
O=C(Nc1cc(C(F)(F)F)ccc1N1CCOCC1)C1=COCCO1,"4.61 µM [falling, partial curve]",–
COc1ccc(CCn2c(=N)c(C(=O)NC3CCCCC3)cc3c(=O)n4ccccc4nc32)cc1,"3.55 µM [falling, single point]",–
CC(=O)c1sc(NC(=O)c2cccs2)nc1C,"8.91 µM [falling, partial curve, poor fit]",–
O=C(CN1CCN(Cc2cccc(Cl)c2)C1=O)NCc1ccc(F)cc1,"22.4 µM [falling, partial curve, poor fit]",–
COc1ccc(C(=O)NCC2(c3ccccc3)CCOCC2)cc1,"0.316 µM [falling, full curve, poor fit]",–
COc1ccc2[nH]c(C)c(C(=O)CN3CCN(C/C=C/c4ccccc4)CC3)c2c1,"28.2 µM [falling, single point]",–
O=C1C(NS(=O)(=O)c2cccs2)=C(N2CCN(c3cccc(Cl)c3)CC2)C(=O)c2ccccc21,"20.6 µM [rising, partial curve, poor fit]",–
COc1ccccc1N1CCN(C(=O)C(C)NC(=O)c2ccco2)CC1 (stereo unspecified),"0.651 µM [rising, full curve, poor fit]",–
Cc1ccc(Cc2cnc(N3C(=N)SC(C)C3=O)s2)cc1 (stereo unspecified),"3.55 µM [rising, partial curve, poor fit]","3.16 µM [falling, single point]"
O=c1cc2c(nn1Cc1ccc(Cl)cc1)-c1ccccc1CC2,"29.1 µM [falling, partial curve, poor fit]",–
C/C(=N/NC(=O)c1ccc(C)s1)c1cccnc1,"2.24 µM [falling, full curve, poor fit]",–
CCc1ccc2nc(N(Cc3cccnc3)C(C)=O)sc2c1,"35.5 µM [rising, single point]",–
O=C(CC(NC(=O)c1ccccc1)c1ccccc1)Nc1ccc(F)c(F)c1 (stereo unspecified),"6.31 µM [rising, single point]",–
COc1ccc(CCNc2nc3ccccc3n3nnnc23)cc1OC,"2.59 µM [falling, partial curve]",–
Cc1cc(C)c2c(-n3cccc3)c(C(=O)NNS(=O)(=O)c3ccc(Br)cc3)sc2n1,"3.55 µM [falling, partial curve]",–
COc1cccc(OCC(=O)NNC(=O)C(=O)Nc2cccc(C)c2)c1,"1.41 µM [falling, single point]",–
Cc1ccc(Cl)cc1N1CCN(C(=O)c2ccc(CN3CCOCC3)cc2)CC1,"32.6 µM [falling, single point]",–
O=C(NC(Nc1nc2ccc([N+](=O)[O-])cc2s1)(C(F)(F)F)C(F)(F)F)c1ccccc1Cl,"29.1 µM [falling, single point]",–

Structure (SMILES),AC50 [1],AC50 [2]
CCc1ccc2[nH]c(O)c(N=Nc3nc(-c4ccccc4)cs3)c2c1,"5.01 µM [rising, partial curve, poor fit]",–
COc1ccc(CC(=O)Nc2ccc(-c3noc(-c4ccc(Cl)cc4)n3)cc2)cc1,"29.1 µM [rising, single point]",–
Cc1ccc(-c2nc(Nc3ccc(N4CCOCC4)cc3)c3ccccc3n2)cc1,"14.1 µM [falling, partial curve, poor fit]","11.2 µM [rising, partial curve, poor fit]"
COc1cccc(N(C(=O)CNC(=O)c2ccco2)C(C(=O)NC2CCCC2)c2ccncc2)c1 (stereo unspecified),"6.51 µM [falling, single point]","3.66 µM [rising, partial curve, poor fit]"
CCOCCCNC(=O)C(c1ccc(Cl)cc1)N(Cc1cccs1)C(=O)CNC(C)=O (stereo unspecified),"32.6 µM [rising, partial curve, poor fit]",–
CC(=O)Oc1ccc(-c2ccc(C(=O)Nc3cccc(S(=O)(=O)N4CCOCC4)c3)cc2)cc1,"35.5 µM [falling, single point]",–
CCC(CC)NC(=O)COC(=O)c1ccc(NS(=O)(=O)c2ccc3c(c2)OCCO3)cc1,"16.4 µM [rising, partial curve]","18.4 µM [falling, partial curve, poor fit]"
CCN1CCN(CC(O)COCC2COc3ccccc3O2)CC1 (stereo unspecified),"1.58 µM [rising, full curve]",–
Cc1ccc(N2CC(C(=O)OCc3nnc(-c4ccccc4)o3)CC2=O)cc1 (stereo unspecified),"10.3 µM [rising, partial curve, poor fit]",–
CCOc1cccc(C(=O)Nc2cccc(C(=O)NCC(C)C)c2)c1,"14.6 µM [falling, partial curve]",–
O=C(Nc1ccc(Cl)cc1)Nc1cccc(C(=O)O)c1,"0.708 µM [falling, full curve]",–
c1ccc2c(c1)CCN(c1nc3cc4c(cc3s1)OCO4)C2,"10.3 µM [falling, partial curve, poor fit]",–
CCCOc1ccc(C(=O)NNC(=S)NC(=O)c2ccccc2)cc1,"35.5 µM [rising, partial curve, poor fit]",–
Cc1ccc(NC(=O)Nc2cnccn2)cc1C,"35.5 µM [falling, single point]",–
COc1cc(/C=N/Nc2nc3ccccc3s2)ccc1OC(=O)c1ccccc1F,"10.3 µM [rising, partial curve, poor fit]",–
Cc1ccc(S(=O)(=O)Nc2nc(C)cc(NN)n2)cc1,"35.5 µM [falling, single point]",–
COc1ccc2c(c1)CC(C)C/C2=N\NC(=O)c1ccco1 (stereo unspecified),"35.5 µM [falling, single point]",–
CCOC(=O)c1cnc(-c2cccc(OC)c2)[nH]c1=O,"29.1 µM [falling, single point]",–
CCn1cnc2cc(NC(=O)c3cccs3)ccc21,"10 µM [falling, partial curve]",–
c1ccc(NCc2nc(-c3ccccc3)no2)cc1,"16.4 µM [falling, single point]",–
COCCNc1oc(-c2ccc(F)cc2)nc1C#N,"22.4 µM [rising, single point]",–

# Among those listed so far, 2 contain a CF3 group:
Structure (SMILES),AC50 [1],AC50 [2]
O=C(Nc1cc(C(F)(F)F)ccc1N1CCOCC1)C1=COCCO1,"4.61 µM [falling, partial curve]",–
O=C(NC(Nc1nc2ccc([N+](=O)[O-])cc2s1)(C(F)(F)F)C(F)(F)F)c1ccccc1Cl,"29.1 µM [falling, single point]",–

# Going on with the list:

Structure (SMILES),AC50 [1],AC50 [2]
CC1CCN(c2ccc(-c3cccc(NC(=O)C(F)(F)F)c3)nn2)CC1,"2.24 µM [falling, full curve]",–
COC(=O)[C@@H](NC(=O)/C=C/c1ccc(OC)cc1)C(C)C,"1.12 µM [falling, full curve, poor fit]",–
O=C(N/N=C/C(Cl)=C/c1ccc([N+](=O)[O-])cc1)C(=O)Nc1ccc(C(=O)O)cc1,"0.501 µM [falling, full curve, poor fit]",–
O=C(Nc1ccccc1Br)c1ccc(N2CCCC2=O)cc1,"29.1 µM [falling, single point]",–
COc1ccc2oc(C(=O)OCC(=O)N(C)C3CCS(=O)(=O)C3)c(C)c2c1 (stereo unspecified),"11.6 µM [falling, partial curve]",–
O=C(c1ccco1)N1N=C(c2ccc3nccnc3c2)CC1c1ccccc1 (stereo unspecified),"0.501 µM [rising, partial curve, poor fit]",–
Cc1cc(SCC(=O)c2ccc(O)c(O)c2)nc2ccccc12,"35.5 µM [falling, single point]",–
Cc1nonc1NC(=O)CSc1nc2ccccc2cc1C#N,"3.55 µM [falling, full curve]",–
CCOc1ccc(NC(=O)C2CC(=O)OC2c2ccccc2)cc1 (stereo unspecified),"35.5 µM [rising, single point]",–
Cc1ccsc1/C=N/NC(=O)c1ccc2c(c1)OCCO2,"7.94 µM [falling, partial curve]",–
CCN1CCCC1CNC(=O)C1CCN(Cc2nc(-c3cccc(Br)c3)oc2C)CC1 (stereo unspecified),"15.8 µM [falling, single point]",–
CC(C)N1C(=O)/C(=C\c2nc3ccccc3c(=O)n2-c2ccccc2)c2ccccc21,"0.13 µM [rising, full curve]",–
CCOc1cc(N2CCOCC2)c(OCC)cc1NC(=O)C1=COCCO1,"11.6 µM [falling, single point]",–
Cc1nc2ccc(NC(=O)C3COc4ccccc4O3)cc2s1 (stereo unspecified),"3.16 µM [rising, partial curve, poor fit]",–
COc1ccc(N2CCN(C(=O)CC34CC5CC(CC(C5)C3)C4)CC2)c([N+](=O)[O-])c1,"20.6 µM [rising, partial curve, poor fit]",–
COc1cc(/C=N/n2c(-c3ccccc3)n[nH]c2=S)ccc1O,"0.708 µM [falling, full curve, poor fit]",–
CN(C(=O)COc1ccc(Br)cc1Cl)C1CCCCC1,"0.562 µM [rising, full curve]",–
Cc1cc(C(=O)Nc2ccc(C)c(C)c2)n(-c2ccccc2)n1,"10 µM [falling, single point]",–
CCCC(=O)N1CCN(c2ccc(NC(=O)c3ccccc3)cc2)CC1,"2.51 µM [rising, partial curve, poor fit]",–
CC12CCC(C(=O)N(NC(=O)c3ccc(O)cc3)C1=O)C2(C)C (stereo unspecified),"14.1 µM [falling, partial curve, poor fit]",–
